Reference: patent US8709811B2, “Materials and methods for synthesis of a flavor and aroma volatile in plants” (University of Florida Research Foundation, Inc., priority 2003, dated 2014)

Tested on: phenylalanine decarboxylase
Assay: In vivo phenylalanine decarboxylase activity of tomato fruit pericarp disks fed 14C-phenylalanine
Conditions: 1 μCi 14C-phenylalanine, 8 hours

Row | Compound | nCi CO2 (8-2-1 pericarp disks) [nCi] | nCi CO2 (M82 pericarp disks) [nCi] | nCi phenethylamine (8-2-1 pericarp disks) [nCi] | nCi phenethylamine (M82 pericarp disks) [nCi]
1 | O=C=O [CO2] | 5.16 ± 2.36 | 0.96 ± 0.05 | – | –
2 | NCCc1ccccc1 [phenethylamine] | – | – | 2.08 ± 0.39 | 0.36 ± 0.02
